Experiment: Remaining cyclic tetrasaccharide in contents of alimentary canal and excrement of rats
Type: in vivo, Wister rats
Settings: depending on the amount of cyclic tetrasaccharide
Description: Forty of Wister rats weighing 110 to 120 g (five-weeks aged male, commercialized by Charles River Japan Inc., Yokohama, Japan) were bred with a feed containing ingredients (%) shown in Table 1 for one week in order to be familiarized. The familiarized rats were randomly divided into four groups with ten rats each. Each group was experimentally bred for eight weeks with either a feed without cyclic tetrasaccharide shown in Table 1 (hereinafter, it is called as “basic feed”), or another feed of basic feed supplemented with 1%, 2% or 5% on a dry solid basis, of cyclic tetrasaccharide in a crystalline anhydrous powder form with a purity of 99.5%, prepared in the following Example A-3. […]
Two days before the end of the breeding test, rats were placed into a gauge for measuring metabolism to collect their excrement in two days. […] The following(s) explain the methods of quantitative analysis of cyclic tetrasaccharide and the methods of measurement of minerals and chromium.
One gram of a feed was admixed with 5 ml of 80% ethanol heated at 85° C. under reflux for 15 minutes to extract saccharides. […] The amount of cyclic tetrasaccharide was quantified by using nitrogen gas as a carrier (35 ml/min). […] The resulting samples were subjected to TMS derivatization in a usual manner and quantified by gas chromatography. […]

Compound: OC[C@H]1O[C@@H]2OC[C@H]3O[C@H](O[C@@H]4[C@@H](O)[C@@H](OC[C@H]5O[C@H](O[C@H]([C@H]2O)[C@@H]1O)[C@H](O)[C@@H](O)[C@@H]5O)O[C@H](CO)[C@H]4O)[C@H](O)[C@@H](O)[C@@H]3O [cyclic tetrasaccharide, cyclo{>6)-α-D-glucopyranosyl-(1>3)-α-D-glucopyranosyl-(1>6)-α-D-glucopyranosyl-(1>3)-α-D-glucopyranosyl-(1>}]
- amount of organic acids including lactic acid: increased
- pH: pH reduction was observed
